The list shows a part of the results.
Tests used:
Assay in all cases: log2 fold change, soluble protein after heating vs DMSO (PISA); higher = thermal stabilisation; K562 cells, 10 uM, 30 min; active = over 0.2 and 3.5 SD of the protein, either way, in both replicates (recomputed)
[1] = compound: CC[C@H](C)N1C=C(C2=C(C=C(C=C21)C3=CN=C(C=C3)N4CCNCC4)C(=O)NCC5=C(C=C(NC5=O)C)C)C
Method in brief: (§1)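 Soluble protein was defined as the supernatant after 21,000xg for 90 min. It came from K562 cells at 2×10^6 cells/mL given 10 μM compound for 30 min, heated in aliquots for 3 min across 48°C-58°C, pooled, and extracted in PBS with 0.5% NP-40 at 4°C, and was quantified by TMTpro 16plex LC-MS/MS with equalised channel sums. Thermal stability against control samples, from duplicates, is reported as log2 fold change.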

Protein sequences, listed by entry. Tags and fused reporters are not part of them. Lines headed by an entry give the natural chain unless they say otherwise; changes in a name come on top.
UniProt P01037: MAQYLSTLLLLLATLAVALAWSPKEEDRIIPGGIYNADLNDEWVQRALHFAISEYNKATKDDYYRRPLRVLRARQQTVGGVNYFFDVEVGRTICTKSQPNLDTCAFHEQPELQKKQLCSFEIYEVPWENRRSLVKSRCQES
UniProt O60931: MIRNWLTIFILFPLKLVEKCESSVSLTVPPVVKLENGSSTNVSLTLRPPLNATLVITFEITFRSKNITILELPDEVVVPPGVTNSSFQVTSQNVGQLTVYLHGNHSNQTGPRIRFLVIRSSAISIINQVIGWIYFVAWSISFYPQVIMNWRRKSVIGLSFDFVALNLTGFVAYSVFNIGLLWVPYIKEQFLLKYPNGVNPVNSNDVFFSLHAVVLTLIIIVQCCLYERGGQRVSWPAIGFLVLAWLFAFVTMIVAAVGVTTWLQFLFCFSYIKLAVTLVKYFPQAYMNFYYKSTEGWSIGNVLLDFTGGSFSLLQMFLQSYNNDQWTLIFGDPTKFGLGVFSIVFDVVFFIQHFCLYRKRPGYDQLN
UniProt Q9NXE8: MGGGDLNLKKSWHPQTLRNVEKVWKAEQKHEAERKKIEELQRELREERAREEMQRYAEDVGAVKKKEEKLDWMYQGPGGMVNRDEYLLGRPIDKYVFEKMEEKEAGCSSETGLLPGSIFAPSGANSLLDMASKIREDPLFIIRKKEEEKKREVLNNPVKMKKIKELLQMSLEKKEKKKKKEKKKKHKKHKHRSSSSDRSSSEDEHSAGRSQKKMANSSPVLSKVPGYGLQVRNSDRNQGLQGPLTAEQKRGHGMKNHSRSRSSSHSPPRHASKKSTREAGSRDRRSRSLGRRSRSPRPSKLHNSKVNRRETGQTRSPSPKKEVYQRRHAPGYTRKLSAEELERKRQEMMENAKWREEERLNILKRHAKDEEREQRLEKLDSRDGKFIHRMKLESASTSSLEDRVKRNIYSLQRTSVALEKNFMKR
UniProt Q99418: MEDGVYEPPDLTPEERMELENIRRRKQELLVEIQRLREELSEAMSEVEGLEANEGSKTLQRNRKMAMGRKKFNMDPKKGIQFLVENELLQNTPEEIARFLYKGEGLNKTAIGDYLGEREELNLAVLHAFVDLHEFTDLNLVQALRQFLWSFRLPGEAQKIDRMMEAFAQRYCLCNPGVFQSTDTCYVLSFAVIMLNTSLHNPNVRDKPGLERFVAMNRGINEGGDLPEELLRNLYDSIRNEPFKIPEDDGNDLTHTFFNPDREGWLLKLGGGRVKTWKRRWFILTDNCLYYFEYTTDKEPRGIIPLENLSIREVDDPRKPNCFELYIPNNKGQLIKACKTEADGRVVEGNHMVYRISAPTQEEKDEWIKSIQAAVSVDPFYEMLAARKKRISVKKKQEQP
UniProt Q92564: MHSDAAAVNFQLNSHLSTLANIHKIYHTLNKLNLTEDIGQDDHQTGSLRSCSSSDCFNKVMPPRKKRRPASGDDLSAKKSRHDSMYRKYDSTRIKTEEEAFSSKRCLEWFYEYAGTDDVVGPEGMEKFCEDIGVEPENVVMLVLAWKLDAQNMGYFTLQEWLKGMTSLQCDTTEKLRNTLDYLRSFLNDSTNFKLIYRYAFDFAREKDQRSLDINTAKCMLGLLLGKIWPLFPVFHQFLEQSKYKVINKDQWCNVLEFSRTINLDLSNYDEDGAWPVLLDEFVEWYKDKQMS
UniProt Q5H9S7: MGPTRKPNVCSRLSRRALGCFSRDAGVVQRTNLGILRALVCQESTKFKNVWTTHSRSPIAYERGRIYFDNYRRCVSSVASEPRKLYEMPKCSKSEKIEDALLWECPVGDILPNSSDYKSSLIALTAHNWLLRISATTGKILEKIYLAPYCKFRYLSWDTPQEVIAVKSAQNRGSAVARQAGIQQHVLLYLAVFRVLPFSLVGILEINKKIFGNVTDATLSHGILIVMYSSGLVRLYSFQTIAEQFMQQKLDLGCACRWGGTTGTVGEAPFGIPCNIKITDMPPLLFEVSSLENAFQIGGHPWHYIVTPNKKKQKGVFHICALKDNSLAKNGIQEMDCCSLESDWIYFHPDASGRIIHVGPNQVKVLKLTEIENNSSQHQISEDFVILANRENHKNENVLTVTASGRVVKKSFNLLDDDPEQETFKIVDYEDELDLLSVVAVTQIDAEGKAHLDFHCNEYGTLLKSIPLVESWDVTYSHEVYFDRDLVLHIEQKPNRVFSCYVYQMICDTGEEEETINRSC
UniProt Q14999: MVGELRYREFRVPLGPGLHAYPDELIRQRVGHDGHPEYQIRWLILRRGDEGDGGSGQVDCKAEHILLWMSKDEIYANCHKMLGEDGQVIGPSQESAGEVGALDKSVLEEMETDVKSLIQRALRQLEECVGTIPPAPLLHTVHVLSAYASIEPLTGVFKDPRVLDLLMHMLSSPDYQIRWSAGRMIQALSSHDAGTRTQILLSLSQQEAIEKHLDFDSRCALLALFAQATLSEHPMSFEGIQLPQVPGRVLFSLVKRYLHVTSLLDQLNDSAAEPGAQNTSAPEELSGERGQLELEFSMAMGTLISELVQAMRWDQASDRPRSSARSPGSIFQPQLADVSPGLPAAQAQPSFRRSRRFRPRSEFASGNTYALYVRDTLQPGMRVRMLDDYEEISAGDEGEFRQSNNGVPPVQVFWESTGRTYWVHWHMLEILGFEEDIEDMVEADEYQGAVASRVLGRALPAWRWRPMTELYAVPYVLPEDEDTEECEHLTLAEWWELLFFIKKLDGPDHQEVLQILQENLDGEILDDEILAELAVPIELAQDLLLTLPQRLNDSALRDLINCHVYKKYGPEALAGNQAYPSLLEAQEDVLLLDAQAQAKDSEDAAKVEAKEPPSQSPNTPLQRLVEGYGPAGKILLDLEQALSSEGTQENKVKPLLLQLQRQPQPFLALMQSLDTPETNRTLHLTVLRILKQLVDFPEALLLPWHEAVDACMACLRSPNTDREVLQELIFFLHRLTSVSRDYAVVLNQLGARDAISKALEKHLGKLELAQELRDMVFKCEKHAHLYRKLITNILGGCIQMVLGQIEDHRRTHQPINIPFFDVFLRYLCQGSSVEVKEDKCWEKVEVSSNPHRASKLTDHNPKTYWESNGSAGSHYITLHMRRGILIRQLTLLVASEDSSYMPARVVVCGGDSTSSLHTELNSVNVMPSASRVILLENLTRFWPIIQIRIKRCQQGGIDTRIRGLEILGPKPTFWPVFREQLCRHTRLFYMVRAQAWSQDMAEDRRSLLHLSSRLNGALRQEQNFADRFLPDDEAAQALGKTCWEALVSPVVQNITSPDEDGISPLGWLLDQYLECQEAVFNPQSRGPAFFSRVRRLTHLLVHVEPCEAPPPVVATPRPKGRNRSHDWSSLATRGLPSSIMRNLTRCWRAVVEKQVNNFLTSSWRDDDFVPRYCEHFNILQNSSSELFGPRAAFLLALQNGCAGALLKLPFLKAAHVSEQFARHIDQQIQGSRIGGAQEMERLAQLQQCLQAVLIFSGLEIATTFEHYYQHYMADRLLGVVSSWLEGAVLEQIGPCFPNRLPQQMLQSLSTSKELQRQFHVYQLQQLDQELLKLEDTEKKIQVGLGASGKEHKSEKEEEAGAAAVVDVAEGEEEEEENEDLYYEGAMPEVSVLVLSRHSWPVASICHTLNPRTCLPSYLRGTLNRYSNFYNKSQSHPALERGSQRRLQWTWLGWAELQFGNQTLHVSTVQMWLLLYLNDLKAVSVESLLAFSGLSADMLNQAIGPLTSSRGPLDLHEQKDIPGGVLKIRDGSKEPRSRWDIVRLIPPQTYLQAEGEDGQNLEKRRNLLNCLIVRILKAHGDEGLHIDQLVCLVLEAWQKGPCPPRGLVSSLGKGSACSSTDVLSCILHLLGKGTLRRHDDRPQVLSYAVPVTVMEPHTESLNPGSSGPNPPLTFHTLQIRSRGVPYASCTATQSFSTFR
UniProt Q96SQ9: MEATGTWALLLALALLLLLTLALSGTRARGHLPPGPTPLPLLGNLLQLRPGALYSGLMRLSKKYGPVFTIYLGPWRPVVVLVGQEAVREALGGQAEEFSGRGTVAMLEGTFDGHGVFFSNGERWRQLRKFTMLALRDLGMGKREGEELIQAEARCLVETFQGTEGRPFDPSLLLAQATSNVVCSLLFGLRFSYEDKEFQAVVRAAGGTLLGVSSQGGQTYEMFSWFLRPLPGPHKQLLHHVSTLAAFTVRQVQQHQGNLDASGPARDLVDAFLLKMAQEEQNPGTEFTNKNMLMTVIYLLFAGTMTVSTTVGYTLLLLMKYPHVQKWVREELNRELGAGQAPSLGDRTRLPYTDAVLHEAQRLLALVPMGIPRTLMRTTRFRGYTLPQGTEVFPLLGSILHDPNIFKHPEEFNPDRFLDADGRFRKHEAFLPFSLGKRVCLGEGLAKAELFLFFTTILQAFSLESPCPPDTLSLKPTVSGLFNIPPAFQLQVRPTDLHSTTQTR
UniProt O43310: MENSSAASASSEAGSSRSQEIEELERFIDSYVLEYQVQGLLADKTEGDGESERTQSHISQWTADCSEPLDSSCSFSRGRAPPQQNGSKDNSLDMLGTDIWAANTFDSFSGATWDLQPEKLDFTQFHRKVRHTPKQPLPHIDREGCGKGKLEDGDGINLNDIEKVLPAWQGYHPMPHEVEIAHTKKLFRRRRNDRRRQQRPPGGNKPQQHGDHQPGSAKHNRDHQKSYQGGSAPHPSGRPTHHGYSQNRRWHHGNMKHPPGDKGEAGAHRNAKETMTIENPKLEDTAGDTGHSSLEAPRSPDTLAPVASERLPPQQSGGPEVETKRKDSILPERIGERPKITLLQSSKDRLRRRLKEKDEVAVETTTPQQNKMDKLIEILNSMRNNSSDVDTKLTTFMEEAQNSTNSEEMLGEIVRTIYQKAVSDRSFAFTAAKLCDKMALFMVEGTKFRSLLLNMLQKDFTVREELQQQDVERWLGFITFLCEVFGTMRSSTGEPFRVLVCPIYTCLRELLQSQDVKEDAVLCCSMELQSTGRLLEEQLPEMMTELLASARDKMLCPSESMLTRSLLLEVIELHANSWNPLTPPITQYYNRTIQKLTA
UniProt Q9HCG8: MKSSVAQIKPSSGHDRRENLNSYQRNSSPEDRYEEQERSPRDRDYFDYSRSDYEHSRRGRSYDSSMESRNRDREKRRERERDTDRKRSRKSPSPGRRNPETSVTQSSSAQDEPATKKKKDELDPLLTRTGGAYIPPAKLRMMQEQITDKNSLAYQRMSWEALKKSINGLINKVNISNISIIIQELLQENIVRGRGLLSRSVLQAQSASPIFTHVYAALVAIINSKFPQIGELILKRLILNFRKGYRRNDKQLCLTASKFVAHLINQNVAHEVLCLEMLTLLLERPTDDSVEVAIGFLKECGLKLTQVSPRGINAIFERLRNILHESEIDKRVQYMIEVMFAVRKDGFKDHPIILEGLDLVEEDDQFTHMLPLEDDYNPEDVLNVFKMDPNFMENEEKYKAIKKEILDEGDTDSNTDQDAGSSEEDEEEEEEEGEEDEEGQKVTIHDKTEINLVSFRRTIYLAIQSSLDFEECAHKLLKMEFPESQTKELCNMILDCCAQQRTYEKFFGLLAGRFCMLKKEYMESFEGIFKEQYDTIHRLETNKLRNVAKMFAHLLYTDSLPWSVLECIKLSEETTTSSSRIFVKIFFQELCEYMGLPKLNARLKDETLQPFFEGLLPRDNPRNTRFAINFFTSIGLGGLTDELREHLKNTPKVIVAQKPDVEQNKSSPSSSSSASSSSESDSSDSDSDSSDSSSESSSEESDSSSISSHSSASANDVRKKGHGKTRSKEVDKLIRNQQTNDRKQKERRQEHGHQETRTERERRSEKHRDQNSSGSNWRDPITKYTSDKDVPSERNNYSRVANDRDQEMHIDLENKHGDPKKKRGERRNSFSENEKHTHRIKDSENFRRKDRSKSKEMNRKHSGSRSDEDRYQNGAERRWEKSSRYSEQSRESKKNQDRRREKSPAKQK
UniProt P01036: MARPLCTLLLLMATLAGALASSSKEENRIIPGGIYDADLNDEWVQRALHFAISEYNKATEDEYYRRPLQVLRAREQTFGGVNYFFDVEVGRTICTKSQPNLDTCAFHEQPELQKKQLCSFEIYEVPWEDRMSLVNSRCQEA
UniProt Q9NSA3: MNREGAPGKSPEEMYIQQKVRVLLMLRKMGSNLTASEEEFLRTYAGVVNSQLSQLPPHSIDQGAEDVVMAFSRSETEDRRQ
UniProt Q6ZWL3: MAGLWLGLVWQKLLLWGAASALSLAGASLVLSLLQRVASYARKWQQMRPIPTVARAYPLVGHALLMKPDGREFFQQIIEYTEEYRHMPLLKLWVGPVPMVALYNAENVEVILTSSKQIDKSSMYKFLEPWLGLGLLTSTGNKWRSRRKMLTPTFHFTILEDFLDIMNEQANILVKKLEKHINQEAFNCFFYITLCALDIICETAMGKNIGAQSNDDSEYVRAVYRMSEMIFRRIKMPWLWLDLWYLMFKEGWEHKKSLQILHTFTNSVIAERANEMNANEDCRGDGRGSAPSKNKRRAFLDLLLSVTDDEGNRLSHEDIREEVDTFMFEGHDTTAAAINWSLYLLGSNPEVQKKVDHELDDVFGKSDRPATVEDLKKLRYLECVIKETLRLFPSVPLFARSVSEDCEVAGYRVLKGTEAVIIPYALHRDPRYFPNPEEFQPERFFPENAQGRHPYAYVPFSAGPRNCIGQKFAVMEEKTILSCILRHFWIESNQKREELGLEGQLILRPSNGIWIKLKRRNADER

epoxomicin = compound: CC[C@H](C)[C@@H](C(=O)N[C@@H]([C@@H](C)O)C(=O)N[C@@H](CC(C)C)C(=O)[C@]1(CO1)C)NC(=O)[C@H]([C@@H](C)CC)N(C)C(=O)C [epoxomicin]
Method in brief: as §1

[2] = compound: CN(C)CC(=O)Nc1ccc2[nH]c(=O)c3ccccc3c2c1
Method in brief: as §1

rosiglitazone = compound: CN(CCOC1=CC=C(C=C1)C[C@H]2C(=O)NC(=O)S2)C3=CC=CC=N3 (racemic) [rosiglitazone]
Method in brief: as §1

[3] = compound: CN1C2=C(C3=C1C(=O)N(N=C3)CC4=CC(=CC=C4)N)SC(=C2)S(=O)C
Method in brief: as §1

volasertib = compound: CC[C@@H]1C(=O)N(C)c2cnc(Nc3ccc(C(=O)N[C@H]4CC[C@H](N5CCN(CC6CC6)CC5)CC4)cc3OC)nc2N1C(C)C [volasertib]
Method in brief: as §1

[4] = compound: CCn1c(C(=O)N(C2CC2)C2CC2)cc2c3c(ncn3C)c(Nc3cc(C)n(C)n3)nc21
Method in brief: as §1

[5] = compound: CC[C@@H]1C(=O)N(C)c2cnc(Nc3ccc(C(=O)NC4CCN(C)CC4)cc3OC)nc2N1C1CCCC1
Method in brief: as §1

[6] = compound: CCn1cc(-c2ccnc3[nH]c(-c4cccc(CN(C)C)c4)cc23)c(-c2ccc(NC(=O)N(C)C)cc2)n1
Method in brief: as §1

[7] = compound: CN1CCC(CNc2ccc3ncc(-c4cccc(OC(F)(F)F)c4)n3n2)CC1
Method in brief: as §1

Measured: log2 fold change

CST1 (UniProt P01037)
inactive: [1] 0.23 | epoxomicin 0.161 | [2] -0.065 | rosiglitazone 0.073 | [3] 0.199

DAPK1 isoform 3 (UniProt P53355)
inactive: volasertib -0.1 | epoxomicin -0.057 | rosiglitazone 0.045

CTDP1 (UniProt Q9Y5B0)
inactive: volasertib -0.255 | [1] -0.035 | epoxomicin 0 | [4] -0.039 | [3] -0.01

CTNS isoform 2 (UniProt O60931)
inactive: [5] 0.221 | [2] 0.135

CWC25 (UniProt Q9NXE8)
inactive: [5] 0.212 | [1] 0.085 | epoxomicin -0.101 | [4] 0.032 | [6] 0.303 | rosiglitazone -0.013 | [7] 0.235

DCP1B (UniProt Q8IZD4)
inactive: rosiglitazone -0.078

CYTH2 (UniProt Q99418)
inactive: volasertib 0.042 | [4] -0.18 | rosiglitazone 0.042 | [3] 0.118

CXCL14 (UniProt O95715)
inactive: [1] -0.203 | rosiglitazone -0.159

CTSS (UniProt P25774)
inactive: [5] -0.027 | [6] 0.126 | [2] -0.021 | [3] 0.051 | [7] -0.034

CTBP1 (UniProt E7ESU7)
inactive: [4] -0.254

CXXC1 isoform 2 (UniProt Q9P0U4)
inactive: volasertib 0.039 | [6] 0.035 | [2] 0.006 | [3] -0.104 | [7] -0.091

DCUN1D4 isoform 3 (UniProt Q92564)
inactive: [5] 0.054 | epoxomicin 0.237 | [2] 0.002 | [3] -0.116

DCAF4 (UniProt Q8WV16)
inactive: [5] 0.03 | [1] -0.075 | epoxomicin 0.041 | [6] 0.147 | [3] 0.128 | [7] -0.086

CTDSPL2 (UniProt Q05D32)
inactive: [1] -0.013 | epoxomicin 0.26 | [6] 0.012 | [3] 0.076 | [7] -0.052

DCAF12 (UniProt Q5T6F0)
inactive: [5] -0.132 | [6] -0.141 | [7] 0.197

DCAF17 (UniProt Q5H9S7)
inactive: [5] 0.039 | epoxomicin -0.037 | [2] -0.014

DCUN1D5 (UniProt Q9BTE7)
inactive: [6] 0.043 | [2] 0.138 | [7] 0.04

CYREN (UniProt Q9BWK5)
inactive: [5] -0.015 | [1] 0.105 | [4] -0.1 | [6] -0.097 | [2] 0.115 | [7] 0.046

DCBLD2 isoform 2 (UniProt Q96PD2)
inactive: [3] 0.178

DAAM1 (UniProt Q9Y4D1)
inactive: [3] 0.424

CTDNEP1 (UniProt O95476)
inactive: [4] 0.11 | [6] 0.111 | [2] 0.087 | [3] -0.074 | [7] 0.168

CUL7 isoform 2 (UniProt Q14999)
inactive: volasertib -0.278 | [1] -0.287 | epoxomicin -0.042 | [4] -0.116 | [6] -0.032 | [3] 0.092 | [7] 0.079

CYP2S1 isoform 2 (UniProt Q96SQ9)
inactive: [4] 0.094 | [6] -0.089 | rosiglitazone 0.101 | [3] -0.057 | [7] 0.088

CYP46A1 (UniProt Q9Y6A2)
inactive: volasertib 0.114 | [6] 0.111 | [2] -0.023 | rosiglitazone 0.002 | [3] 0.04 | [7] -0.236

Reprinted at random: 2 records from the list
CTDNEP1 (UniProt O95476)
inactive: [4] 0.11 | [6] 0.111 | [2] 0.087 | [3] -0.074 | [7] 0.168

CYP2S1 isoform 2 (UniProt Q96SQ9)
inactive: [4] 0.094 | [6] -0.089 | rosiglitazone 0.101 | [3] -0.057 | [7] 0.088

(list continues)

CTIF (UniProt O43310)
inactive: epoxomicin 0.033 | [2] 0.198

CTDSP1 (UniProt Q9GZU7)
inactive: [1] 0.068 | [4] 0.232 | [6] -0.077 | [2] 0.109 | [7] 0.075

CWC22 (UniProt Q9HCG8)
inactive: volasertib -0.277

CYREN isoform 4 (UniProt Q9BWK5)
inactive: volasertib 0.186 | [6] -0.063 | [2] -0.228 | rosiglitazone -0.085 | [3] 0 | [7] 0.094

CXorf40B (UniProt Q96DE9)
inactive: epoxomicin 0.007 | [6] -0.022 | [3] -0.137 | [7] -0.03

CYP2R1 (UniProt Q6VVX0)
inactive: [5] 0.211 | [1] 0.058 | rosiglitazone 0.001

CTSF (UniProt Q9UBX1)
inactive: epoxomicin -0.137 | [4] 0.153 | [6] 0.069 | [7] 0.044

DCBLD1 (UniProt Q8N8Z6)
inactive: volasertib -0.065 | epoxomicin -0.106 | [3] -0.261

DAAM2 (UniProt Q86T65)
inactive: [1] 0.033 | epoxomicin -0.378 | [4] -0.021 | rosiglitazone 0.056 | [3] -0.018

CST4 (UniProt P01036)
inactive: [1] 0.467 | [2] -0.027 | rosiglitazone -0.113

CTNNBIP1 (UniProt Q9NSA3)
inactive: [6] 0.094 | [3] -0.045 | [7] 0.113

DCP2 (UniProt Q8IU60)
inactive: volasertib -0.153 | epoxomicin -0.04 | [2] -0.069 | [3] 0.319

CYP4V2 (UniProt Q6ZWL3)
inactive: [5] -0.086 | epoxomicin -0.07 | [4] -0.009 | [6] 0.002 | [2] -0.04 | [3] -0.042 | [7] -0.175

CXXC5 (UniProt Q7LFL8)
inactive: epoxomicin 0.031 | [4] -0.057 | [3] 0.019

From the supplement of paper PMC10849652
